{"source": "PubChem BioAssay AID504744 (Drosophila RNAi Screening Center, 2011)", "purpose": "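Find genes whose loss alters insulin-driven dAkt phosphorylation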 (primary screen)", "system": "Drosophila Kc167 cells", "knock-down reagent": "long dsRNA against Drosophila genes, 250 ng dsRNA per well of a 384-well plate", "timing": "3 days of knock-down, then overnight serum-free starvation before stimulation", "treatment": "bovine insulin at 387 nM for 10 minutes after 12 h without serum", "measurement": "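In-cell antibody fluorescence for phospho-dAkt in each well over DNA-dye signal, with log2 residuals expressed as z-scores adjusted for cell count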", "rule for the call": "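Under insulin, a gene counts as a hit if the average z-score of two replicates lies above 2.5 or below -2.5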", "note": "In all, the deposit lists about 23,000 reagents; this is a random part of those with a known target gene and a result. Over the whole deposit, 98 (0.43%) are marked active. 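Only hit calls are given; the phospho-dAkt signals, z-scores and hit direction were not deposited.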 The numbers tell different reagents against one gene apart. A plus sign joins genes that one reagent is predicted to hit."}
{"gene": "CG32750", "reagent": 1, "activity call": "inactive"}
{"gene": "CG6813", "reagent": 1, "activity call": "inactive"}
{"gene": "NiPp1", "reagent": 1, "activity call": "inactive"}
{"gene": "CG7296", "reagent": 1, "activity call": "inactive"}
{"gene": "CG7296", "reagent": 2, "activity call": "inactive"}
{"gene": "par-6", "reagent": 1, "activity call": "inactive"}
{"gene": "Acf", "reagent": 1, "activity call": "inactive"}
{"gene": "PolG1", "reagent": 1, "activity call": "inactive"}
{"gene": "jv", "reagent": 1, "activity call": "inactive"}
{"gene": "jv", "reagent": 2, "activity call": "inactive"}
{"gene": "CG34227", "reagent": 1, "activity call": "inactive"}
{"gene": "CG34227", "reagent": 2, "activity call": "inactive"}
{"gene": "CG33640", "reagent": 1, "activity call": "inactive"}
{"gene": "side-IV + CG17025 (retired record)", "reagent": 1, "activity call": "inactive"}
{"gene": "Ugt303B1", "reagent": 1, "activity call": "inactive"}
{"gene": "Rab11", "reagent": 1, "activity call": "inactive"}
{"gene": "CG8560", "reagent": 1, "activity call": "inactive"}
{"gene": "CG34384", "reagent": 1, "activity call": "inactive"}
{"gene": "CG34384", "reagent": 2, "activity call": "inactive"}
{"gene": "CG34384", "reagent": 3, "activity call": "inactive"}
{"gene": "CG34384", "reagent": 4, "activity call": "inactive"}
{"gene": "Amacr", "reagent": 1, "activity call": "inactive"}
{"gene": "Pdzd8", "reagent": 1, "activity call": "inactive"}
{"gene": "AP-2mu", "reagent": 1, "activity call": "inactive"}
{"gene": "Sym", "reagent": 1, "activity call": "inactive"}
{"gene": "AMPKalpha", "reagent": 1, "activity call": "active"}
{"gene": "CG14115", "reagent": 1, "activity call": "inactive"}
{"gene": "CG17105", "reagent": 1, "activity call": "inactive"}

12 entries from above in another layout.
| gene | reagent | activity call |
| --- | --- | --- |
| par-6 | 1 | inactive |
| Acf | 1 | inactive |
| PolG1 | 1 | inactive |
| jv | 1 | inactive |
| jv | 2 | inactive |
| CG34227 | 1 | inactive |
| CG34227 | 2 | inactive |
| CG33640 | 1 | inactive |
| side-IV + CG17025 (retired record) | 1 | inactive |
| Ugt303B1 | 1 | inactive |
| Rab11 | 1 | inactive |
| CG8560 | 1 | inactive |

The results go on.
{"gene": "CG42288", "reagent": 1, "activity call": "inactive"}
{"gene": "CG12990", "reagent": 1, "activity call": "inactive"}
{"gene": "CG9040", "reagent": 1, "activity call": "inactive"}
{"gene": "ATP8B", "reagent": 1, "activity call": "inactive"}
{"gene": "Cog7", "reagent": 1, "activity call": "inactive"}
{"gene": "stnB + stnA", "reagent": 1, "activity call": "inactive"}
{"gene": "stnB + stnA", "reagent": 2, "activity call": "inactive"}
{"gene": "stnB + stnA", "reagent": 3, "activity call": "inactive"}
{"gene": "Cec2", "reagent": 1, "activity call": "inactive"}
{"gene": "nudE", "reagent": 1, "activity call": "inactive"}
{"gene": "nudE", "reagent": 2, "activity call": "inactive"}
{"gene": "Pka-C3", "reagent": 1, "activity call": "inactive"}
{"gene": "Pka-C3", "reagent": 2, "activity call": "inactive"}
{"gene": "Mct1", "reagent": 1, "activity call": "inactive"}
{"gene": "CG34056", "reagent": 1, "activity call": "inactive"}
{"gene": "CG15731", "reagent": 1, "activity call": "inactive"}
{"gene": "CG15731", "reagent": 2, "activity call": "inactive"}
{"gene": "CG31809", "reagent": 1, "activity call": "inactive"}
{"gene": "Pef", "reagent": 1, "activity call": "inactive"}
{"gene": "Pif1", "reagent": 1, "activity call": "inactive"}
{"gene": "CG5618", "reagent": 1, "activity call": "inactive"}
{"gene": "Tgt", "reagent": 1, "activity call": "inactive"}
{"gene": "Socs36E", "reagent": 1, "activity call": "inactive"}
{"gene": "Gabat", "reagent": 1, "activity call": "inactive"}
{"gene": "CG10589", "reagent": 1, "activity call": "inactive"}
{"gene": "Dpm1", "reagent": 1, "activity call": "inactive"}
{"gene": "CG31953 (retired record) + gkt", "reagent": 1, "activity call": "inactive"}
{"gene": "Ski6", "reagent": 1, "activity call": "inactive"}
{"gene": "dco", "reagent": 1, "activity call": "inactive"}
{"gene": "CG31957", "reagent": 1, "activity call": "inactive"}
{"gene": "gpp", "reagent": 1, "activity call": "inactive"}
{"gene": "gpp", "reagent": 2, "activity call": "inactive"}
{"gene": "Noc1", "reagent": 1, "activity call": "inactive"}
{"gene": "CG10097 + CG10096", "reagent": 1, "activity call": "inactive"}
{"gene": "CG10097 + CG10096", "reagent": 2, "activity call": "inactive"}
{"gene": "CG12206", "reagent": 1, "activity call": "inactive"}
{"gene": "DIP-kappa", "reagent": 1, "activity call": "inactive"}
{"gene": "DIP-kappa", "reagent": 2, "activity call": "inactive"}
{"gene": "CG11168", "reagent": 1, "activity call": "inactive"}
{"gene": "CG32829", "reagent": 1, "activity call": "active"}
{"gene": "CG32829", "reagent": 2, "activity call": "inactive"}
{"gene": "SdhCL", "reagent": 1, "activity call": "inactive"}
{"gene": "Charon", "reagent": 1, "activity call": "inactive"}
{"gene": "CG9240", "reagent": 1, "activity call": "inactive"}
{"gene": "CG4783", "reagent": 1, "activity call": "inactive"}
